Test results published in PubChem BioAssay AID2685 (National Center for Advancing Translational Sciences (NCATS), 2010).
Some of the results follow. Shown are side measurements of this screen, not its main read-out; they come without a call. Compounds called inactive in the main read-out are mostly missing here. Words in brackets tell the shape of the fitted curve; partial curves, single points and poor fits give uncertain potencies.

Assay: qHTS Assay for Lipid Storage Modulators in Drosophila S3 Cells;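 on cell number change: cells counted by Cell Tracker Red CMTPX staining in the red channel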
Settings: BODIPY lipid droplet fluorescence, 18-24 h; for cell number change: measured here: cell count max response, cells fed with added oleic acid
Outline: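 Drosophila S3 cells got compounds at several concentrations plus oleic acid (400 uM solution). Laser-scanning cytometry with 488 nm excitation read lipid droplets at 500-530 nm and cells at 575-640 nm. Percent activity was relative to 20 uM Triacsin C.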

[1] = measured here: cell number channel AC50, cells fed with added oleic acid
[2] = measured here: lipid fluorescence (Fed channel) AC50, cells fed with added oleic acid

| Compound | cell number change | AC50 [1] | AC50 [2] |
| --- | --- | --- | --- |
| CC(C)N(Cc1nc(-c2ccc(Cl)cc2)no1)C(=O)CCCN1C(=O)c2ccccc2C1=O | -32.8% | 2.91 µM [falling, partial curve] | – |
| CC(=O)N1CCCc2ccc(NS(=O)(=O)c3ccccc3)cc21 | 15.2% | – | 0.731 µM [falling, single point] |
| COc1cccc(/C=C/c2ccc3cccc(O)c3n2)c1OC | -11.3% | – | 29.1 µM [falling, single point] |
| OCC1(Cc2ccccc2)CCN(Cc2ccc(-c3ccco3)cc2)CC1 | -2.9% | – | – |
| CCOC(=O)c1cnc(SC)nc1Oc1cccc(NS(=O)(=O)c2ccc(F)cc2)c1 | -2.76% | – | 0.184 µM [rising, full curve, poor fit] |
| Cc1cc(NS(C)(=O)=O)c(=O)n(Cc2cccc(F)c2)c1 | 5.18% | – | 2.91 µM [rising, single point] |
| CC/C(=N\NC(=O)C1CCCC1)c1cccc(Br)c1 | -1.45% | – | 20.6 µM [rising, single point] |
| Cc1ccc(S(=O)(=O)Nc2cccc(S(=O)(=O)N3CCCC3)c2)cc1C | – | – | 6.51 µM [rising, single point] |
| COc1ccc(-c2nn(-c3ccccc3)cc2/C=C2/SC(=S)N(CCCC(=O)O)C2=O)c(C)c1 | -19.6% | – | – |
| O=C(Cc1ccc(Cl)cc1)N/N=C/c1cccc(O)c1 | – | – | 0.731 µM [rising, single point] |
| Fc1ccc(-c2nnc(CSc3nnc(-c4ccc5c(c4)OCO5)o3)o2)cc1 | -10.2% | – | 0.731 µM [rising, single point] |
| COc1ccc(CC(=O)N(C)CC(=O)Nc2ccccc2SC)cc1 | 22.2% | – | 29.1 µM [rising, single point] |
| CC(NS(=O)(=O)c1ccccc1)C(=O)Nc1ccc2c(c1)OCCO2 (centres undefined) | -24.7% | – | 29.1 µM [falling, single point] |
| COc1ccc(C)cc1NC(=O)CSc1nnc(-c2ccco2)n1N | -22.3% | – | – |
| O=C(CN1C(=O)NC2(CCCC2)C1=O)OCCOc1cccc(Cl)c1 | 29.7% | – | – |
| CC(OC(=O)c1ncc(Cl)c(Cl)c1Cl)C(=O)NC1CCCCC1C (centres undefined) | -2.5% | – | – |
| CCN1CCN(C(=O)c2ccc(Sc3ccccc3Cl)c([N+](=O)[O-])c2)CC1 | 3.54% | – | – |
| CSc1ccc(/C=C(\NC(=O)c2ccccc2)C(=O)NN)cc1 | 28.5% | – | 29.1 µM [rising, single point] |
| COc1ccc(S(=O)(=O)N(C)C)cc1NC(=O)CSc1ncccn1 | 22.9% | 3.66 µM [rising, full curve, poor fit] | 1.3 µM [rising, full curve] |
| CC(=O)Nc1ccc(S(=O)(=O)N2CCN(CCc3ccccc3)CC2)cc1 | -5.29% | – | 29.1 µM [falling, single point] |
| Cc1ccc(NC(=O)CC2NCCN(Cc3ccccc3)C2=O)cc1 (centres undefined) | -24% | 4.11 µM [falling, full curve, poor fit] | 4.61 µM [falling, full curve] |
| O=C(CCS(=O)(=O)c1ccc(F)cc1)Nc1ccc(N2CCN(Cc3ccccc3)CC2)cc1 | -6.32% | – | 0.092 µM [rising, full curve, poor fit] |

2 of the compounds above, with tabs.
Compound	cell number change	AC50 [1]	AC50 [2]
CCOC(=O)c1cnc(SC)nc1Oc1cccc(NS(=O)(=O)c2ccc(F)cc2)c1	-2.76%	–	0.184 µM [rising, full curve, poor fit]
Cc1cc(NS(C)(=O)=O)c(=O)n(Cc2cccc(F)c2)c1	5.18%	–	2.91 µM [rising, single point]

(more compounds)

| Compound | cell number change | AC50 [1] | AC50 [2] |
| --- | --- | --- | --- |
| Cc1nc(N2CCN(c3ccccn3)CC2)c2c(C)c(C(=O)N3CCN(c4ccccc4F)CC3)sc2n1 | 97.4% | 16.4 µM [rising, partial curve] | 29.1 µM [falling, single point] |
| Cc1ccccc1N1CCN(S(=O)(=O)CC23CCC(CC2=O)C3(C)C)CC1 (centres undefined) | -7.46% | – | – |
| Cn1nnc(NC(=O)c2ccc(Br)o2)n1 | -4.13% | – | 4.11 µM [falling, partial curve, poor fit] |
| CC1CC1c1ccc(/C=C(\C#N)C(=O)Nc2ccc(Cl)cc2Cl)o1 (centres undefined) | -3.81% | 0.103 µM [falling, full curve, poor fit] | – |
| COC(=O)c1ccc(CN2C(=O)NC3(CCC(C)CC3)C2=O)o1 (centres undefined) | -1.22% | – | – |
| CC(Sc1nnc(-c2ccncc2)n1C)C(=O)NCC1CCCO1 (centres undefined) | -3.61% | – | – |
| Cc1cc(C)c(S(=O)(=O)N2CCOC2CNC(=O)C(=O)NCCc2ccc(S(N)(=O)=O)cc2)c(C)c1 (centres undefined) | 13% | 6.51 µM [rising, single point] | – |
| CN(CCCC(=O)N1CCCC(C(N)=O)C1)S(=O)(=O)c1ccc(F)cc1 (centres undefined) | -6.58% | – | – |
| Cc1nc(NC(=O)c2cc3c(s2)CCCCC3)sc1C(=O)N(C)C | 0.0835% | – | 0.731 µM [falling, single point] |
| Cc1ccc(S(=O)(=O)N/N=C/c2c(C)nn(-c3ccccc3)c2C)cc1 | – | – | 6.51 µM [rising, single point] |
| CCSC1=C(C#N)C(c2ccccc2C)CC(=O)N1 (centres undefined) | 16.6% | – | – |
| COC(=O)c1cccc(NS(=O)(=O)c2ccc(OC)c(OC)c2)c1C | -48.5% | – | – |
| C/C(=N\NC(=O)CSc1nc(C)cc(C)n1)c1ccc([N+](=O)[O-])cc1 | – | – | 0.731 µM [falling, single point] |
| CC(C)(C)C1(C)OC(=O)C(=Cc2ccc(OCC(=O)Nc3ccccc3)cc2)C(=O)O1 (centres undefined) | -13.1% | – | 0.461 µM [falling, full curve, poor fit] |
| CCOC(=O)NC(=O)CSc1nc2ccccc2[nH]1 | -39.3% | 4.61 µM [falling, single point] | 6.51 µM [falling, single point] |
| COc1cc2c(cc1OC)CN(C(=O)c1cccs1)CC2 | -20.1% | – | 29.1 µM [falling, single point] |
| COC(=O)C1=C(C)NC(=S)NC1c1ccc(-c2cc(Cl)ccc2Cl)o1 (centres undefined) | 8.75% | – | 1.16 µM [rising, full curve, poor fit] |
| Cc1ccc(C(CNS(=O)(=O)c2ccc([N+](=O)[O-])cc2)N2CCN(C)CC2)cc1 (centres undefined) | -31.8% | 0.184 µM [falling, full curve] | 0.651 µM [falling, full curve] |
| NC(=O)c1ccccc1N/C=C/C(=O)c1ccccc1 | -22.1% | – | – |
| COc1ccc(CC(=O)N(C)CC(=O)Nc2ccccc2C(F)(F)F)cc1S(=O)(=O)N1CCOCC1 | -26.9% | – | 6.51 µM [falling, single point] |
| COc1cc(/C=N\NC(=O)C2C(=O)NCC2c2ccccc2)cc(OC)c1O (centres undefined) | -7.88% | – | 0.259 µM [rising, full curve, poor fit] |
| Cn1nc(-c2ccccc2)c(CSc2ccccc2Cl)c1Cl | – | 2.31 µM [rising, single point] | 10.3 µM [rising, single point] |

An excerpt of these results, with tabs:
Compound	cell number change	AC50 [1]	AC50 [2]
Fc1ccc(-c2nnc(CSc3nnc(-c4ccc5c(c4)OCO5)o3)o2)cc1	-10.2%	–	0.731 µM [rising, single point]
COc1ccc(CC(=O)N(C)CC(=O)Nc2ccccc2SC)cc1	22.2%	–	29.1 µM [rising, single point]
CC(NS(=O)(=O)c1ccccc1)C(=O)Nc1ccc2c(c1)OCCO2 (centres undefined)	-24.7%	–	29.1 µM [falling, single point]
COc1ccc(C)cc1NC(=O)CSc1nnc(-c2ccco2)n1N	-22.3%	–	–
O=C(CN1C(=O)NC2(CCCC2)C1=O)OCCOc1cccc(Cl)c1	29.7%	–	–
CC(OC(=O)c1ncc(Cl)c(Cl)c1Cl)C(=O)NC1CCCCC1C (centres undefined)	-2.5%	–	–
CCN1CCN(C(=O)c2ccc(Sc3ccccc3Cl)c([N+](=O)[O-])c2)CC1	3.54%	–	–
CSc1ccc(/C=C(\NC(=O)c2ccccc2)C(=O)NN)cc1	28.5%	–	29.1 µM [rising, single point]
COc1ccc(S(=O)(=O)N(C)C)cc1NC(=O)CSc1ncccn1	22.9%	3.66 µM [rising, full curve, poor fit]	1.3 µM [rising, full curve]
CC(=O)Nc1ccc(S(=O)(=O)N2CCN(CCc3ccccc3)CC2)cc1	-5.29%	–	29.1 µM [falling, single point]
Cc1ccc(NC(=O)CC2NCCN(Cc3ccccc3)C2=O)cc1 (centres undefined)	-24%	4.11 µM [falling, full curve, poor fit]	4.61 µM [falling, full curve]
O=C(CCS(=O)(=O)c1ccc(F)cc1)Nc1ccc(N2CCN(Cc3ccccc3)CC2)cc1	-6.32%	–	0.092 µM [rising, full curve, poor fit]
Cc1nc(N2CCN(c3ccccn3)CC2)c2c(C)c(C(=O)N3CCN(c4ccccc4F)CC3)sc2n1	97.4%	16.4 µM [rising, partial curve]	29.1 µM [falling, single point]
Cc1ccccc1N1CCN(S(=O)(=O)CC23CCC(CC2=O)C3(C)C)CC1 (centres undefined)	-7.46%	–	–
Cn1nnc(NC(=O)c2ccc(Br)o2)n1	-4.13%	–	4.11 µM [falling, partial curve, poor fit]
CC1CC1c1ccc(/C=C(\C#N)C(=O)Nc2ccc(Cl)cc2Cl)o1 (centres undefined)	-3.81%	0.103 µM [falling, full curve, poor fit]	–
COC(=O)c1ccc(CN2C(=O)NC3(CCC(C)CC3)C2=O)o1 (centres undefined)	-1.22%	–	–
CC(Sc1nnc(-c2ccncc2)n1C)C(=O)NCC1CCCO1 (centres undefined)	-3.61%	–	–
Cc1cc(C)c(S(=O)(=O)N2CCOC2CNC(=O)C(=O)NCCc2ccc(S(N)(=O)=O)cc2)c(C)c1 (centres undefined)	13%	6.51 µM [rising, single point]	–

Continued.

| Compound | cell number change | AC50 [1] | AC50 [2] |
| --- | --- | --- | --- |
| C=CCSC1=C(C#N)C(c2ccc(C(C)C)cc2)CC(=O)N1 (centres undefined) | -49.6% | 23.1 µM [falling, single point] | 18.4 µM [falling, partial curve, poor fit] |
| Cc1cc(C)nc(N2CCC(C(=O)NCc3cccs3)CC2)n1 | -58.8% | 16.4 µM [falling, partial curve] | – |
| CC(C)c1nnc(NC(=O)CSc2nnc(-c3ccco3)o2)s1 | -8.79% | – | 0.82 µM [falling, single point] |
| COC(=O)c1c(NS(=O)(=O)c2ccccc2)csc1C | 31.4% | 7.31 µM [rising, partial curve, poor fit] | 1.46 µM [rising, partial curve] |
| Cc1ccc(-c2n[nH]c(=S)n2/N=C/C=C\c2ccccc2[N+](=O)[O-])cc1 | -5.27% | – | – |
| CCOc1ccc(C2=CSC3=NCCN23)cc1Cl | -8.24% | – | 4.61 µM [falling, single point] |
| CCOc1ccccc1NC(=O)c1c(NC(=O)CNCc2ccco2)sc2c1CCC2 | 13.3% | – | 0.116 µM [falling, full curve, poor fit] |
| Cc1nc2cc(C(=O)OCC(=O)N(CC(C)C)C3CCS(=O)(=O)C3)ccc2n1-c1ccccc1 (centres undefined) | 18.6% | – | 4.61 µM [rising, full curve, poor fit] |
| CCN(CC)S(=O)(=O)c1ccc2c(c1)c(=O)c(C(=O)NCCN(C)CCc1ccccc1)cn2C | -6.05% | – | – |
| O=C(NCc1nnc(SCC(=O)N2CCCC2)o1)c1cccc(C(F)(F)F)c1 | 1.3% | – | – |
| CCCNC(=O)c1c(CSc2ccccc2)noc1C(=O)NCc1ccccc1 | -3.13% | – | 0.651 µM [rising, single point] |
| O=C(Oc1c(Cl)cc(Cl)c2cccnc12)c1cccs1 | -25.1% | – | 20.6 µM [falling, single point] |
| CC(C)(C)CNC(=O)c1ccc2c(c1)S(=O)(=O)c1cc(Cl)ccc1C2=O | -32.3% | 29.1 µM [falling, single point] | – |
| CCOC(=O)C1CCN(CCC(=O)Nc2ccc(Br)cc2)CC1 | 7.04% | – | 29.1 µM [rising, single point] |
| Cc1cc2c(c(=O)n1CCN(C)C)C(c1ccccc1Br)C(C#N)=C(N)O2 (centres undefined) | 2.99% | – | – |
| Cc1ccc(NC(=O)CSc2nc(N)cc(N)n2)cc1S(=O)(=O)N1CCOCC1 | -51.4% | 29.1 µM [falling, single point] | 29.1 µM [falling, single point] |
| O=C(O)c1cc(Cl)ccc1NC(=O)C1CCCO1 (centres undefined) | -8.49% | – | 0.00651 µM [rising, full curve, poor fit] |
| CCCc1nnc(SCC(=O)Nc2nccs2)o1 | 6.41% | – | – |
| CCC(C)c1ccc(OCCN2CCCC2)cc1 (centres undefined) | – | – | 0.0517 µM [falling, full curve, poor fit] |
| O=C(Cc1ccc(Cl)cc1)NCCCn1ccnc1 | 58.8% | 11.6 µM [rising, partial curve] | 20.6 µM [rising, partial curve] |
